# Assay results taken from the supplement of paper PMC10338343.
# ± gives the standard deviation. This is a selection; strong and weak results do not stand in their true shares. The uncertainty is large for many entries.
# System: MIWI (PIWIL1) piRISC loaded with piRNA #2 (30 nt)
# Assay: pre-steady-state target cleavage rate (min^-1); MIWI and MILI are mouse PIWI proteins and EfPiwi is from a freshwater sponge; tags in brackets are library labels; higher = faster piRNA-guided slicing of the target
# Conditions: guide: piRNA #2 5'p-UUAGGUAACCCAGUAGAUCCAGAGGAAUUC; auxiliary factor: 500 nM mouse GTSF1
# Procedure, shortened: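 The pre-steady-state cleavage rate was obtained by Cleave-'n-Seq with a burst-and-steady-state fit. A transcribed, DNA-blocked target RNA library (0.1 nM) was mixed with 1 nM active affinity-purified piRISC carrying one synthetic guide, with or without 500 nM GTSF1 partner protein, in HEPES–potassium acetate buffer at 33 °C for 0–8 or 0–960 min. Uncleaved targets were sequenced and normalised to depth and to weakly complementary targets, with three trials pooled and k3 capped at 0.0001 min^-1.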
row,Sequence,pre-steady-state target cleavage rate
1,CUUAAGGACUGGAUCUACUGGGUAACCUUA,0.00433 ± 0.015
2,CUUAAGGACUGGAUCUACUCGGUUACCUAA,0.0207 ± 0.022
3,CUUAAGGAGUGGAUCUACCUGGGUUACCUAA,0.00078 ± 0.009
4,CUUAAGGAGACCUAGAUCUGGGUUACCCUAA,0.000329 ± 0.016
5,CUUAAGGAGAGGAUCUACUGGGUAACCUUA,0.000305 ± 0.021
6,CUUAAGGAGACCUAGAUGUGGGUUACCAUAA,0.000615 ± 0.011
7,CUUAACCUCUGGAUAUACUGGGUUACCUAA,0.552 ± 0.042
8,CUUAUCCUCUGGAUCUACUGGUGUUACCUAA,0.00283 ± 0.0044
9,CUUAAGGAGACCAUCUACUGGGUUCCUAA,0.000716 ± 0.012
10,CUUAAGGAGACCAUCUACUGGUUACCUAA,0.00154 ± 0.0051
11,CAAUACGUCUGGAUCUACUGGGUUACCUAA,0.494 ± 0.053
12,CUUAAGGACUGGAUCUACUGCCUUACCUAA,0.00533 ± 0.0099
13,CUUAAGGAGUGGAUCUACUCGGUUACCAAA,0.00101 ± 0.019
14,GAAUUCCUCUGCAACUACUGGGUUACCUAA,0.413 ± 0.048
15,CUUUUCCUCUGGAUCUAACUGGGUUACCUAA,0.00138 ± 0.0072
16,CUUAAGGACUGAUCUACUGGGUUACCUAA,0.00708 ± 0.0098
17,CUUAACCUCUGGAUCUACUGGGUAUGGAUA [g8:g25:cont:t1A],0.000957 ± 0.013
18,CUUAAGGAGACGAUCUAGUGGGUUACGUAA,0.000391 ± 0.0066
19,CUUAACCUCUGGAUCUACUGGGUUACCGUAA,0.155 ± 0.019
20,CUUAAGGAGACCUUGUACUGGGUUACCAAA,0.000262 ± 0.016
21,CUUAAGGAGACCAUCUACUGGCUUACGUAA,0.00134 ± 0.0066
22,CUUAAGGAGACCUUCUACUGGCUUACGUAA,0.000514 ± 0.011
23,CUUUUCCUCUGGAUCUACUGGGUACCUAA,0.00119 ± 0.006

row,Sequence,pre-steady-state target cleavage rate
1,CUAUUCCUCUGGAUCUUACUGGGUUACCUAA,0.00334 ± 0.0039
2,CUUAAGGAGAGGAUCUACUGGGUUACGAUA,0.000541 ± 0.013
3,CUAUUCCUCUGGAUCAACUGGGUUACCUAA,0.44 ± 0.051
4,CUUAAGGACUGGAUCUACUGGGUUUCGUAA,0.00837 ± 0.0098
5,CAAUUCCUCUGGAUCUACUGGCAAACCUAA,0.00304 ± 0.0041
6,CUUAAGCUCUGGAUCUACUGGCAUACCUAA,0.00166 ± 0.0078
7,CUUAAGGAGAGGAUCUACUUGGUUACCUAA,0.00298 ± 0.0043
8,CUUAAGGAGACGAUCUACAUGGGUUACCUAA,0.00106 ± 0.0072
9,CUUAAGCUCUGGAUCUACUGCCAUACCUAA,0.00142 ± 0.01
10,CUUAAGGAGACCAUCUACUGGGUUACCAUA,0.00206 ± 0.0044
11,CUUAAGGAGACCUAGUAUCUGGGUUACCUAA,0.000675 ± 0.015
12,CUUAAGGAGACCUUCUAUGGGUUACCUAA,0.001 ± 0.011
13,GAAUUCCUCUGGAUCUACUGGGUGACCUAA,0.244 ± 0.038
14,CUAUUCCUCUGGAUUUACUGGGUUACCUAA,0.529 ± 0.048
15,CUUAAGGAGACCUUCUACUGGGUAUGCUAA,0.000582 ± 0.013
16,CUUAAGGAGACCUAGAUCUUGGGUUACCUAA,0.00111 ± 0.0075
17,CUUAAGGUCUGGAUGUUCUGGGUUACCUAA,0.05 ± 0.018
18,CUUAAGGAGACGAUCUUCUGGCUUACCUAA,0.000248 ± 0.014
19,CUUAAGGAGACCUAGAAGCUGGGUUACCUAA,0.000854 ± 0.0096
20,CUUAACCUCUGGAUCUACUGGAGUUACCUAA,0.00317 ± 0.0031
21,CAAUUCCUCUGCUUCUACUGGGUUACCUAA,0.653 ± 0.056
22,CUUAAGGAGAGGUAGUACUGGGUUACCUAA,0.000832 ± 0.012
23,CUUAAGGAGAGGUUCUACUGGGAUACCUAA,0.00084 ± 0.011

row,Sequence,pre-steady-state target cleavage rate
1,CUUAAGGACUGGAUUACUGGGUUACCUAA,0.00908 ± 0.014
2,CUUAAGGACUGGAUCAACUCGGUUACCUAA,0.00252 ± 0.013
3,CUUAAGGUCACCAUCUACUGGGUUACCUAA,0.00137 ± 0.0062
4,CUUAAGGACUGGAUGUACUCGGUUACCUAA,0.00083 ± 0.028
5,CUUAAGGAGAGGAUCUACUGCGUUAGCUAA,0.000176 ± 0.041
6,CUAUUCCUCUGGAUGUACUGGGUUACCUAA,0.533 ± 0.041
7,CUUAAGGAGACGAUCAACUGCGUUACCUAA,0.00112 ± 0.0054
8,CUUAAGGAGACCUUCUACUGGGUUACCAUAA,0.00192 ± 0.007
9,GAAUUCCUCUGGAUCUACUGCCAAUGGAUA [g11:g30:cont:t1A],0.000149 ± 0.033
10,CUUAAGGUCUGGAUCUUGAGGGUUACCUAA,0.00127 ± 0.0064
11,CUUAAGGAGACCUAGUACUGGGUUACCUGA,0.000347 ± 0.019
12,CUUAAGGAGAGGAUUACUGGGUUACCUAA,0.00014 ± 0.041
13,CUUAAGGAGACCUUCAACUGGGUUACCAAA,0.000245 ± 0.017
14,CUUAAGGUCUGGAUCUAGCUGGGUUACCUAA,0.000348 ± 0.021
15,CUAUUCCUCUGGAUCUACUGGGUUAGGAUA [g6:g28:cont:t1A],0.00334 ± 0.0046
16,CUUAAGGAGACCUACUACUGCGGUUACCUAA,0.00281 ± 0.0041
17,CUUAAGGAGACCUAGAUGAGGGUUACGAAA,0.000658 ± 0.011
18,CUUAAGGACAGGAUCUUCUGGGUUACCUAA,0.00624 ± 0.0089
19,CUUAAGGAGACCUAGUACUGGGUUACCUAC [g2:g15:cont:t1C],0.00116 ± 0.0044
20,CUUAAGGAGACCUACUUCUGGGUUACGUAA,0.00119 ± 0.0078
21,CUUAAGGAGUCCAUCUACUGGGUUACCUAA,0.00218 ± 0.0041
22,CUUAAGGAGACCUUCUACUGCGUAACCUAA,0.00108 ± 0.01
23,CUUAAGGACUGGAUACUACUGGGUUACCUAA,0.0183 ± 0.019

# Some values from the entries so far:
# Value for CUUAAGGAGACCUAGUACUGGGUUACCUGA under pre-steady-state target cleavage rate: 0.000347 ± 0.019
# Value for CUUAAGGAGACCUUCAACUGGGUUACCAAA under pre-steady-state target cleavage rate: 0.000245 ± 0.017

# Three consecutive entries from above:
row,Sequence,pre-steady-state target cleavage rate
10,CUUAAGGAGACCAUCUACUGGUUACCUAA,0.00154 ± 0.0051
11,CAAUACGUCUGGAUCUACUGGGUUACCUAA,0.494 ± 0.053
12,CUUAAGGACUGGAUCUACUGCCUUACCUAA,0.00533 ± 0.0099

# Next part.

row,Sequence,pre-steady-state target cleavage rate
1,CUUAAGGAGACCUAGAUGUGGGUUAACUAA,0.000405 ± 0.016
2,CUUAAGGAGACGAUCUACUGUGGUUACCUAA,0.000248 ± 0.013
3,CUUAAGGAGACCUAGAUGACCCAUACCUAA,0.000279 ± 0.017
4,CUUAAGGAGACCUAGUGACUGGGUUACCUAA,0.00028 ± 0.029
5,CUUAAGGAGACCAUCUACUGGGUUAACUAA,0.00185 ± 0.0036
6,CUUAAGGAGACCAUCUACUGAGGUUACCUAA,0.00182 ± 0.0076
7,GAAUUCCUCUCGAUCUACUGGGUUACCUAA,0.642 ± 0.068
8,CUUAAGGAGACCAUCUACUGGGUUACCUCA,0.0011 ± 0.0092
9,GAAUUCCUCUGGAUCUACUGGGUACCUAA,0.00153 ± 0.0055
10,CUUAAGGAGAGGAUCGACUGGGUUACCUAA,0.00066 ± 0.029
11,CUUAAGGAGACCAUCUACGUGGGUUACCUAA,0.00127 ± 0.0071
12,CUUAAGGAGACCUUCUACUCCGUUACCUAA,0.00111 ± 0.0053
13,CUUAAGGAGACCUAGUACUGGGUUUCCAAA,0.000879 ± 0.0094
14,CUUAAGGAGACCAUCUACUGGGUUAGCCUAA,0.00318 ± 0.0037
15,CUUAAGGAGACCUACUACUGGGUACCUAA,0.00131 ± 0.0051
16,CUUAAGGAGACCUACUACUGGGUUUACCUAA,0.00188 ± 0.0049
17,CUUAAGGAGAGGAUAUACUGGGUUACCUAA,0.00311 ± 0.0034
18,CUUAAGGAGACGAAUCUACUGGGUUACCUAA,0.00192 ± 0.0029
19,CUAUUCCUCUGGAACUUCUGGGUUACCUAA,0.299 ± 0.036
20,CUUAAGGAGACGAUCUACUGGGAAUCCUAA,0.000972 ± 0.0065
21,CUUAAGGACUGGAUCUACUGGGUUUGGUAA,0.000413 ± 0.039
